In US12280032B2, “Methods and compositions for increasing the potency of antifungal agents” (Pacific Northwest Research Institute, priority 2014, dated 2025):
At least one compound was matched to its structure with a doubt left.

System: S. cerevisiae F45 flo11Δ mutant
Assay type: cell-based, Saccharomyces cerevisiae

For `OCCc1ccccc1` [PE, phenyl ethanol], the “Effect of PE on fluconazole sensitivity (zone of inhibition)” value was “as much as it did the wild-type strain”.
